Measured values as given in paper PMC7378308.
These are yes or no findings as the source states them, for the method shown. Binding seen in cells or lysates may run through a third protein. Some entries that bind do so weakly or less than the wild type.

By UniProt entry, the sequences of proteins in these tests, tags left out.
UniProt Q9Z2V6: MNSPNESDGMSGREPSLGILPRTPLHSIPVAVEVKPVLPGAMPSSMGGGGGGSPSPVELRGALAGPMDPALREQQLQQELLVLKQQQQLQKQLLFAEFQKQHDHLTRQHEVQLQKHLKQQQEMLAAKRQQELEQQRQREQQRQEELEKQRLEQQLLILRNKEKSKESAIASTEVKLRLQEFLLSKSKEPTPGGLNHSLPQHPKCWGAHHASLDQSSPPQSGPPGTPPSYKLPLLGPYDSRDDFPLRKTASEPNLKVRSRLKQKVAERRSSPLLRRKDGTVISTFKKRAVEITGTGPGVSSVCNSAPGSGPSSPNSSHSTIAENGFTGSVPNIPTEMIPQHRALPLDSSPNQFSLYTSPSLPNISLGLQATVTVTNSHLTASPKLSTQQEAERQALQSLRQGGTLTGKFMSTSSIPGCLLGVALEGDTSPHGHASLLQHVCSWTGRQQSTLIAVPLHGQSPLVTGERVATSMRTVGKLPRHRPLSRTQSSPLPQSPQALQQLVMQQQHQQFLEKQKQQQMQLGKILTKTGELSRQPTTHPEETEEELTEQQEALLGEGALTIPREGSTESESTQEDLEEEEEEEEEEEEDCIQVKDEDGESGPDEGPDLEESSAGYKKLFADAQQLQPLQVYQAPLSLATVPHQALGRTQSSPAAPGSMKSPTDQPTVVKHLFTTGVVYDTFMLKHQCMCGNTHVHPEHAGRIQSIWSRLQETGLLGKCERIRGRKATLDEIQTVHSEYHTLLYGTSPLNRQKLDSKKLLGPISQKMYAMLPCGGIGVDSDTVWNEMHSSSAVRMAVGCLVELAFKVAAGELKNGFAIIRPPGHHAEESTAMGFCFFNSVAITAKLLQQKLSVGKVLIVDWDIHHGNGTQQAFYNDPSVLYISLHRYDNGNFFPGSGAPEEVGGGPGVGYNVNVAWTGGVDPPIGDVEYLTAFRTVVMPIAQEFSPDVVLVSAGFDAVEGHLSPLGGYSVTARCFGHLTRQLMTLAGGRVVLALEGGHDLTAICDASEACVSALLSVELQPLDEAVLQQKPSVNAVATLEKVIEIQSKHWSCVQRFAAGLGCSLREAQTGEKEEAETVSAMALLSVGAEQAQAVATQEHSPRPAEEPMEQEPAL
UniProt Q8CFN5: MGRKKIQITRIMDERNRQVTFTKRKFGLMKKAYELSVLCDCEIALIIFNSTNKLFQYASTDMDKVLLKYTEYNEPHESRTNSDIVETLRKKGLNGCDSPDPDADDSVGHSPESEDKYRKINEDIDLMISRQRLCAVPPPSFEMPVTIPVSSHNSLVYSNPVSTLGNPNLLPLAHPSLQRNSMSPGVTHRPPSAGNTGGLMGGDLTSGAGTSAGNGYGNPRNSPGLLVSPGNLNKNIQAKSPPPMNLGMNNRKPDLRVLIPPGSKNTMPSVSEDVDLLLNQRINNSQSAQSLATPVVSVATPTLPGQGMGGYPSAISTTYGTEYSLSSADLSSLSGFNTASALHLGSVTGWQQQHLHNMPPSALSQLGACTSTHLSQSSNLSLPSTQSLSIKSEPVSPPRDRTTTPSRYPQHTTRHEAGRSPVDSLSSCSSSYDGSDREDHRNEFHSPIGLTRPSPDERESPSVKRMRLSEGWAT

Target: Histone deacetylase 5 (mouse (endogenous in visual cortex)) (UniProt Q9Z2V6)
Assay: co-IP; lysates of pooled visual cortex (four pairs, pups of the same dam; mice perfused as for Golgi-Cox staining; SC and EE rearing) in Pierce IP Lysis buffer, incubated with HDAC5 antibody overnight at 4°C, magnetic beads; immunoblot with anti-HDAC5 or anti-MEF2C

- binding: binds
Substance: myocyte enhancer-binding factor 2C (from UniProt Q8CFN5 1-474)
